From PubChem BioAssay AID248 (DTP/NCI, 2004) come the findings set out here.

The list does not hold the whole screen: it is rich in T/C values a quarter to a half above the control, in often repeated tests (any T/C) and in doses without a T/C. Other doses and runs of a compound stand elsewhere. T/C gives the treated animals as a percentage of the vehicle group. Some entries give survivors of the animals treated and no T/C: the source holds a T/C of zero for them, seemingly a mark for toxic or unscored doses. Some survivor counts are full or nearly so, which does not show that the dose was tolerated: the source hardly ever lists a survival T/C far under the control, and the zero likely stands for such cases as well. Counts of survivors are from the toxicity check (mostly the fifth day) where no day follows; animals may have died later. Schedules are NCI's codes, read here as Q, the interval in days (D) or hours (H), X, the number of doses. Some entries were tested several times; the values are given in rising order. Some schedules carry Z or #; the key to these is not given. For survival time, this PubChem deposit counts one and a half times the control or more as active, and values a quarter to a half above the control carry no call in these data; other NCI protocols may use other cut-offs. Counts like (3×) say how often a value occurs here.

In the assay the test system is L1210 leukemia ip in BDF1 mice, survival T/C. As to the kind of experiment: NCI In Vivo Anticancer Drug Screen. Data for tumor model L1210 Leukemia (intraperitoneal) in B6D2F1 (BDF1) mice. The note with it: T/C endpoint: mean survival time, higher T/C = longer survival.
Setting [1] is: dose: 400.0 mg/kg/injection, schedule: Q01DX001 (ip), vehicle: saline.
Where [2] appears, read: dose: 100.0 mg/kg/injection, schedule: Q01DX009 (ip), vehicle: saline with Tween-80.
The mark [3] stands for this setting: dose: 200.0 mg/kg/injection, schedule: Q01DX009 (ip), vehicle: saline with Tween-80.
Setting [4] is: dose: 100.0 mg/kg/injection, schedule: Q04DX003 (ip), vehicle: Klucel (hydroxypropylcellulose) (HPC).
Where [5] appears, read: dose: 200.0 mg/kg/injection, schedule: Q04DX003 (ip), vehicle: Klucel (hydroxypropylcellulose) (HPC).
The mark [6] stands for this setting: dose: 400.0 mg/kg/injection, schedule: Q04DX003 (ip), vehicle: Klucel (hydroxypropylcellulose) (HPC).
Setting [7] is: dose: 25.0 mg/kg/injection, schedule: Q01DX009 (ip), vehicle: saline with Tween-80.

Turning to `Brc1ccc2oc3ccccc3c2c1`, under “dose: 200.0 mg/kg/injection, schedule: Q04DX002 (ip), vehicle: saline”, the T/C is 132 % of control.
`CN(C)C1(C(=O)O)c2ccccc2-c2ccccc21`: the survivor count under setting [1] is 2 of 4.
Regarding `CC(=O)Nc1ccc(Cc2ccc(Br)cc2)cc1`, the survivor count under setting [1] was 3 of 6.
`FC(F)(F)c1cccc(-c2nc3nc(Cl)c(Cl)nc3[nH]2)c1`: the survivor count by setting is: under setting [2], 3 of 6; under setting [3], 0 of 6; (dose: 400.0 mg/kg/injection, schedule: Q01DX009 (ip), vehicle: saline with Tween-80) 0 of 6.
Regarding `O=[N+]([O-])CCCl`, the survivor count reads like this: (dose: 40.0 mg/kg/injection, schedule: Q04DX003 (ip), vehicle: Klucel (hydroxypropylcellulose) (HPC)) 0 of 6; (dose: 80.0 mg/kg/injection, schedule: Q04DX003 (ip), vehicle: Klucel (hydroxypropylcellulose) (HPC)) 0 of 6; under setting [4], 1 of 6; under setting [5], 1 of 6; under setting [6], 0 of 6.
Regarding `CN1C2CCC1CC(OC(=O)C(CO)c1ccccc1)C2` (configuration not stated), for the setting “dose: 250.0 mg/kg/injection, schedule: Q01DX Z (ip), vehicle: saline”, the survivor count was 2 of 6.
Take `CS(=O)(=O)c1nnc(-c2ccccc2)s1`: the survivor count (dose: 400.0 mg/kg/injection, schedule: Q01DX009 (ip), vehicle: Klucel (hydroxypropylcellulose) (HPC)) is reported as 6 of 6.
Take `O=C(O)c1cccc(C(=O)O)n1`: the survivor count (dose: 300.0 mg/kg/injection, schedule: Q01DX001 (ip), vehicle: acetone) was 0 of 6.
On to `CN1C2CCC(O)C1CC2` (configuration not stated), for which the survivor count under setting [1] was 2 of 4.
On to `N#Cc1cccc(C[P+](c2ccccc2)(c2ccccc2)c2ccccc2)c1`, for which the survivor count by setting is: (dose: 50.0 mg/kg/injection, schedule: Q01DX009 (ip), vehicle: Klucel (hydroxypropylcellulose) (HPC)) 1 of 6; under setting [4], 1 of 6; under setting [5], 0 of 6; under setting [6], 0 of 6.
For the molecule `O=C(CCc1ccccc1)NC(=S)Nc1ccc(I)cc1`, the T/C is 90, 101, 105 % of control under setting [7]; 88, 94, 107 % of control (2×) (dose: 50.0 mg/kg/injection, schedule: Q01DX009 (ip), vehicle: saline with Tween-80); 92, 94, 95, 96 (2×), 112 % of control under setting [2]; 143 % of control (dose: 100.0 mg/kg/injection, schedule: Q04DX002 (ip), vehicle: saline with Tween-80); 86, 89, 100 % of control under setting [3]. In addition, the survivor count under setting [7] is on record as 3 of 3 and the survivor count under setting [3] is 3 of 3.
As for `NNC(=O)C1CC12CC2` (configuration not stated), the survivor count (dose: 200.0 mg/kg/injection, schedule: Q01DX001 (ip), vehicle: saline) is reported as 3 of 6 and the survivor count under setting [1] is given as 0 of 6.
Regarding `CN1CCC2(CC1)C(=O)N(Nc1ccccc1)C(=O)C2c1ccccc1` (configuration not stated), the survivor count (dose: 400.0 mg/kg/injection, schedule: Q04DX002 (ip), vehicle: Klucel (hydroxypropylcellulose) (HPC)) is 0 of 3.
In the case of `CCN(CC)c1ccc(NC(=O)Nc2ccccc2OC)cc1`, the survivor count under setting [3] is listed as 6 of 6.
Turning to `C=C(Br)CN(C)C(C)=O`, the survivor count reads like this: (dose: 100.0 mg/kg/injection, schedule: Q04DX003 (ip), vehicle: saline) 2 of 6; (dose: 200.0 mg/kg/injection, schedule: Q04DX003 (ip), vehicle: saline) 0 of 6; (dose: 400.0 mg/kg/injection, schedule: Q04DX003 (ip), vehicle: saline) 0 of 6.
`Cc1cc(NC(=S)Nc2ccccc2)c(NC(=S)Nc2ccccc2)cc1C`: the survivor count runs as follows: (dose: 200.0 mg/kg/injection, schedule: Q01DX005 (ip), vehicle: Klucel (hydroxypropylcellulose) (HPC)) 2 of 3 and 3 of 3; (dose: 225.0 mg/kg/injection, schedule: Q01DX009 (ip), vehicle: Klucel (hydroxypropylcellulose) (HPC)) 1 of 3; (dose: 400.0 mg/kg/injection, schedule: Q01DX005 (ip), vehicle: Klucel (hydroxypropylcellulose) (HPC)) 1 of 3.
Turning to `O=C(/C=C/c1ccc(Cl)cc1)CCN1CCC2CCC(C2)C1` (configuration not stated), the survivor count is 2 of 4 (dose: 200.0 mg/kg/injection, schedule: Q01DX001 (ip), vehicle: carboxymethylcellulose (CMC)) and 2 of 4 (dose: 400.0 mg/kg/injection, schedule: Q01DX001 (ip), vehicle: carboxymethylcellulose (CMC)).
Take `NC(N)=N/N=C/c1cccs1`: the survivor count reads like this: (dose: 15.0 mg/kg/injection, schedule: Q01DX Z (ip), vehicle: saline) 6 of 6; (dose: 60.0 mg/kg/injection, schedule: Q01DX Z (ip), vehicle: saline) 0 of 6; (dose: 120.0 mg/kg/injection, schedule: Q01DX Z (ip), vehicle: saline) 0 of 6; (dose: 120.0 mg/kg/injection, schedule: Q01DX Z (oral), vehicle: saline) 0 of 6.
